PubChem BioAssay AID602196 – INSERM | 2012

Assay: 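Genes whose knock-down alters cisplatin killing of lung cancer cells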
Cells: human A549 lung cancer cells
Knock-down reagent: siRNA pair against human genes
Time to read-out: 48 h transfection before cisplatin; time from cisplatin to read-out not stated
Conditions: cisplatin at a dose killing half of control-siRNA cells; exact dose and duration not given
Read-out: 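Cisplatin cell death as a shift from the 50% death seen with control siRNA; siRNAs toxic or growth-blocking alone scored 0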
Reading the numbers: two-siRNA summed score (-2 to +2): higher = both siRNAs protect from cisplatin killing; -2 means both sensitise; mean protection from cisplatin (shift in death) and protection from cisplatin (shift in death), siRNA C and protection from cisplatin (shift in death), siRNA D: higher = protection from cisplatin killing
Call rule: 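Each siRNA scores 0 if harmful alone by LDH or WST-1, otherwise +1 if it reduces and -1 if it increases cisplatin killing; a gene is active when both siRNAs agree (sum +2 or -2)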
Calls: active = both siRNAs shift cisplatin killing the same way; inactive = no consistent shift, or siRNA harmful alone
The whole screen tested about 23,000 reagents; shown is a part drawn at random. 455 of all reagents (2%) count as active. 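Active includes both protection and sensitisation; some change values fall well beyond the stated -50 to +50 range.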 Not stated in the record: the amount of reagent.

The first 2 records, ahead of the listing:
Gene	PubChem SID	two-siRNA summed score (-2 to +2)	mean protection from cisplatin (shift in death) (%)	protection from cisplatin (shift in death), siRNA C (%)	protection from cisplatin (shift in death), siRNA D (%)	outcome
KCNC2	SID131504848	0	-4.3	-2.7	-6	inactive
LINC01600	SID131511117	0	4	-3.1	11.1	inactive

Results, repeating the preview:
Gene	PubChem SID	two-siRNA summed score (-2 to +2)	mean protection from cisplatin (shift in death) (%)	protection from cisplatin (shift in death), siRNA C (%)	protection from cisplatin (shift in death), siRNA D (%)	outcome
KCNC2	SID131504848	0	-4.3	-2.7	-6	inactive
LINC01600	SID131511117	0	4	-3.1	11.1	inactive
MAPKAP1	SID131501605	-1	-8.7	1.3	-18.7	inactive
TNNC1	SID131500907	-1	-14.4	-15.6	-13.1	inactive
FLJ46675	SID131518231	0	17.4	31.3	3.5	inactive
NUS1	SID131502590	-1	-0.4	-14.3	13.5	inactive
CCNE2	SID131506772	0	-1	-7	5	inactive
ALOX12	SID131502605	-1	-0.2	-11.2	10.8	inactive
B3GALT1	SID131502171	-1	-4.7	-14.8	5.3	inactive
OR10K2	SID131511987	0	5	10.6	-0.6	inactive
TMEM60	SID131517236	0	12.8	17.5	8.1	inactive
SOX2	SID131517938	0	15.5	13.6	17.4	inactive
ACOT12	SID131502039	-1	-5.7	7.3	-18.7	inactive
LOC389236	SID131503633	0	-8.7	6.2	-23.7	inactive
NNAT	SID131511841	0	4.8	0.8	8.8	inactive
OR51B6	SID131516724	0	11.5	11.5	11.5	inactive
AOX1	SID131501006	-1	-13.4	8.1	-35	inactive
LOC391016	SID131519783	1	7.4	13.6	1.2	inactive
FLYWCH1L (retired record)	SID131502084	-1	-5.4	3.4	-14.3	inactive
WNT4	SID131505125	0	-3.7	0.2	-7.7	inactive
LOC440613	SID131515718	0	9.6	12.2	7	inactive
LOC441235	SID131511713	0	4.6	1.2	8.1	inactive
LOC401823	SID131519019	1	1	12.6	-10.7	inactive
